Results from the supplement of paper PMC7830784.
Counter-ions that a name gives are not always drawn. The list shows a part of the results. Single values are uncertain here, since repeats match poorly.

What follows are compounds tested on Brugia pahangi adult female (assay: motility inhibition on day 3 relative to DMSO vehicle; higher = more active). Details: 10 µM; 3 days.

Row | SMILES | motility inhibition on day 3 [%]
1 | CCCCCNC(=N)N/N=C/c1c[nH]c2ccc(OC)cc12 [tegaserod maleate] | 15.3
2 | NCCNCCNCCN [trientine hydrochloride] | 18
3 | CNCCCC12CCC(c3ccccc31)c1ccccc12 [maprotiline hydrochloride] | 25
4 | CO/N=C(\C(=O)N[C@@H]1C(=O)N2C(C(=O)[O-])=C(C[N+]3(C)CCCC3)CS[C@H]12)c1csc(N)n1 [Cefepime] | 28.8
5 | OC(c1cc(C(F)(F)F)nc2c(C(F)(F)F)cccc12)C1CCCCN1 (centres undefined) [mefloquine] | 7.91
6 | NC[C@@H](O)c1ccc(O)c(O)c1 [L(-)-Norepinephrine bitartrate] | 3.83
7 | CC1(C)C[C@@H]1C(=O)N/C(=C\CCCCSC[C@H](N)C(=O)O)C(=O)O [Cilastatin] | 23.7
8 | CCCCCC(=O)O[C@]1(C(C)=O)CC[C@H]2[C@@H]3CCC4=CC(=O)CC[C@]4(C)[C@H]3CC[C@@]21C [hydroxyprogesterone caproate] | 5.23
9 | CC(=O)O[C@H]1C[C@@H]2CC[C@@H]3[C@H](CC[C@@]4(C)[C@H]3C[C@H]([N+]3(C)CCCCC3)[C@@H]4OC(C)=O)[C@@]2(C)C[C@@H]1N1CCCCC1 | < 0
10 | CC(=O)O[C@H]1C[C@@H]2CC[C@@H]3[C@H](CC[C@@]4(C)[C@H]3C[C@H]([N+]3(C)CCCCC3)[C@@H]4OC(C)=O)[C@@]2(C)C[C@@H]1N1CCCCC1 [vecuronium bromide] | < 0
11 | Cc1cc(C)cc(OCC2CNC(=O)O2)c1 (centres undefined) [metaxalone] | 37.3
12 | C[C@@H](O)[C@H]1C(=O)N2C(C(=O)O)=C(S[C@@H]3CN[C@H](C(=O)N(C)C)C3)[C@H](C)[C@H]12 | 1.02
13 | C[C@@H](O)[C@H]1C(=O)N2C(C(=O)O)=C(S[C@@H]3CN[C@H](C(=O)N(C)C)C3)[C@H](C)[C@H]12 [meropenem] | 2.33
14 | C[C@@H]1O[C@@H](OC[C@H]2O[C@@H](Oc3c(-c4ccc(OCCO)c(OCCO)c4)oc4cc(OCCO)cc(O)c4c3=O)[C@H](O)[C@@H](O)[C@@H]2O)[C@H](O)[C@H](O)[C@H]1O [troxerutin] | 0.433
15 | CCN(CC)C(=O)/C(C#N)=C/c1cc(O)c(O)c([N+](=O)[O-])c1 [entacapone] | 7.5
16 | C[C@]12C=CC(=O)C=C1CC[C@H]1[C@@H]3C[C@@H](O)[C@](O)(C(=O)CO)[C@@]3(C)C[C@H](O)[C@@]12F [triamcinolone] | 6.42
17 | CC[C@H](C)C(=O)O[C@H]1C[C@@H](C)C=C2C=C[C@H](C)[C@H](CC[C@@H]3C[C@@H](O)CC(=O)O3)[C@H]21 [lovastatin] | 11.5
18 | CN(C)CCOC(c1ccccc1)c1ccc(Br)cc1 (centres undefined) [Bromazine Hydrochloride] | 28.8
19 | CCN(CC)CCOC(=O)c1ccc(N)cc1 [procaine hydrochloride] | < 0
20 | OCCN1CCN(CC/C=C2\c3ccccc3Sc3ccc(Cl)cc32)CC1 [Zuclopenthixol Succinate Salt] | 27.4

Row | SMILES | motility inhibition on day 3 [%]
21 | CC(C)CCCC(C)N (centres undefined) [octodrine] | 4.89
22 | CC(=O)O[C@H]1C[C@@]2(C)[C@@H](C[C@@H](O)[C@H]3[C@@]4(C)CC[C@@H](O)[C@@H](C)[C@@H]4CC[C@@]32C)/C1=C(\CCC=C(C)C)C(=O)O [fusidic acid] | 29.6
23 | CC(=O)N[C@@H](CS)C(=O)O [acetylcysteine] | 11.5
24 | NC(=O)OCC(COC(N)=O)c1ccccc1 [felbamate] | 21.3
25 | Cc1ccnc(NS(=O)(=O)c2ccc(N)cc2)n1 [sulfamerazine] | 19.1
26 | COc1ccc(C[C@H](N)C(=O)N[C@H]2[C@@H](O)[C@H](n3cnc4c(N(C)C)ncnc43)O[C@@H]2CO)cc1 [puromycin hydrochloride] | 16.7
27 | CCCCC/C=C/CCC(=O)N[C@H]1[C@H](Oc2c3cc4cc2Oc2ccc(cc2Cl)[C@@H](O[C@@H]2O[C@H](CO)[C@@H](O)[C@H](O)[C@H]2NC(C)=O)[C@@H]2NC(=O)[C@H](NC(=O)[C@@H]4NC(=O)[C@H]4NC(=O)C(Cc5ccc(c(Cl)c5)O3)NC(=O)[C@H](N)c3ccc(O)c(c3)Oc3cc(O)cc4c3)c3ccc(O)c(c3)-c3c(OC4O[C@H](CO)[C@@H](O)[C@H](O)[C@@H]4O)cc(O)cc3[C@@H](C(=O)O)NC2=O)O[C@H](CO)[C@@H](O)[C@@H]1O (some centres undefined) [teicoplanin [a(2-1) shown]] | < 0
28 | [O-][n+]1cccc(CO)c1 [mepiroxol] | 2.38
29 | CNC[C@H](O)[C@@H](O)[C@H](O)[C@H](O)CO [meglumine] | 2.78
30 | Nc1ccc(S(=O)(=O)Nc2cnc3ccccc3n2)cc1 [sulfaquinoxaline sodium] | 1.48
31 | NCCCC(O)(P(=O)(O)O)P(=O)(O)O [alendronate sodium] | 9.25
32 | COC(=O)N[C@H](C(=O)N[C@@H](Cc1ccccc1)[C@@H](O)CN(Cc1ccc(-c2ccccn2)cc1)NC(=O)[C@@H](NC(=O)OC)C(C)(C)C)C(C)(C)C [Atazanavir] | 14
33 | CCCCNc1cc(C(=O)O)cc(S(N)(=O)=O)c1Oc1ccccc1 [bumetanide] | 17.2
34 | C[C@H](Cn1cnc2c(N)ncnc21)OCP(=O)(O)O [tenofovir] | 47.4
35 | CC1(C)S[C@@H]2[C@H](N3C(=O)C(c4ccccc4)NC3(C)C)C(=O)N2[C@H]1C(=O)O (some centres undefined) | 1.8
36 | CC(C)n1c(/C=C/C(O)CC(O)CC(=O)O)c(-c2ccc(F)cc2)c2ccccc21 (centres undefined) [fluvastatin] | 0.0456
37 | O=c1oc2cc(O)ccc2s1 [thioxolone] | 16.1
38 | CC1/C=C/C=C/C=C/C=C/C=C/C=C/C=C/C(OC2O[C@H](C)[C@@H](O)[C@H](N)[C@@H]2O)CC(O)C(C(=O)O)C(O)CC(=O)CC(O)CC(O)CC(O)CC(=O)CCCC(=O)CC(=O)OC1C(C)CC(C)C(O)CC(=O)c1ccc(N)cc1 (some centres undefined) [candicidin] | 8.15
39 | C[C@@H]1C[C@H]2[C@@H]3CCC4=CC(=O)C=C[C@]4(C)[C@@]3(Cl)[C@@H](O)C[C@]2(C)[C@@]1(OC(=O)c1ccco1)C(=O)CCl [mometasone furoate] | < 0

Excerpt: nos. 12–20
Row | SMILES | motility inhibition on day 3 [%]
12 | C[C@@H](O)[C@H]1C(=O)N2C(C(=O)O)=C(S[C@@H]3CN[C@H](C(=O)N(C)C)C3)[C@H](C)[C@H]12 | 1.02
13 | C[C@@H](O)[C@H]1C(=O)N2C(C(=O)O)=C(S[C@@H]3CN[C@H](C(=O)N(C)C)C3)[C@H](C)[C@H]12 [meropenem] | 2.33
14 | C[C@@H]1O[C@@H](OC[C@H]2O[C@@H](Oc3c(-c4ccc(OCCO)c(OCCO)c4)oc4cc(OCCO)cc(O)c4c3=O)[C@H](O)[C@@H](O)[C@@H]2O)[C@H](O)[C@H](O)[C@H]1O [troxerutin] | 0.433
15 | CCN(CC)C(=O)/C(C#N)=C/c1cc(O)c(O)c([N+](=O)[O-])c1 [entacapone] | 7.5
16 | C[C@]12C=CC(=O)C=C1CC[C@H]1[C@@H]3C[C@@H](O)[C@](O)(C(=O)CO)[C@@]3(C)C[C@H](O)[C@@]12F [triamcinolone] | 6.42
17 | CC[C@H](C)C(=O)O[C@H]1C[C@@H](C)C=C2C=C[C@H](C)[C@H](CC[C@@H]3C[C@@H](O)CC(=O)O3)[C@H]21 [lovastatin] | 11.5
18 | CN(C)CCOC(c1ccccc1)c1ccc(Br)cc1 (centres undefined) [Bromazine Hydrochloride] | 28.8
19 | CCN(CC)CCOC(=O)c1ccc(N)cc1 [procaine hydrochloride] | < 0
20 | OCCN1CCN(CC/C=C2\c3ccccc3Sc3ccc(Cl)cc32)CC1 [Zuclopenthixol Succinate Salt] | 27.4
